# Test results taken from PubChem BioAssay AID1347426 (Functional Genomics Laboratory (NCATS/FGL), 2020).
# In all, about 31,000 sequences went through this assay and about 1,400 (4.5%) were called active.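 The calls were made as follows: active = median seed-adjusted z-score above 1 or below -1; inactive = the rest.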 The list shows a part of the results.
# Experiment: Novel Modifiers of Survival Motor Neuron (SMN) Protein: Gene Identification via Genome-wide siRNA Screen;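 also: luminescence tracks full-length SMN protein made from the SMN2 reporter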
# Conditions: HEK293T SMN2-luciferase reporter, siRNA knockdown, 72 h; actives lie on both sides
# Outline: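 Steps: spot 1 pmol siRNA, add Lipofectamine RNAiMax in serum-free DMEM, seed HEK293T SMN2–luciferase reporter cells; incubate 72 h at 37 °C; add ONE-Glo; normalize luminescence to control siRNA, log10, MAD. Candidates: |MAD| > 1.0.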
row,Sequence,median seed-adjusted z-score
1,GCACCCACCUAGACACGAATT against GLIS1,inactive: 0.838
2,GACUACGUCCGAACCCGUATT against MLXIPL,inactive: 0
3,GGUGAACAACAGUCAGAAGTT against GRINL1A,inactive: 0
4,GGCUCGAUGUUAUGAGUCATT against WDR46,inactive: -0.136
5,GAAGAUCUCCAACAAAAGATT against KRT40,inactive: -0.324
6,GAGUCAACAAUGGACAUUUTT against KLHL1,inactive: 0.067
7,CCACAAGCUGCAUAAGAGATT against SPTBN4,inactive: -0.0625
8,GCAGUUCGCCGUAGACUUUTT against DNM1,inactive: 0.217
9,GAACAAAAGCGUGAUCUUGTT against KLK3,inactive: 0.0191
10,CGAAAAACCUGGGAAAGAUTT against ZNF669,inactive: 0.175
11,GCUACGAGUUUACUAUCUUTT against TNIK,inactive: 0.154
12,GGUCUAAACUUGAUCCAAATT against CCAR1,active: -1.18
13,GCUCUAUUUUCGCUUAAAATT against LCMT2,inactive: -0.0205
14,CACAGGUAAUCAUACCCUATT against NDUFA9,inactive: -0.325
15,UGCUGAAUGGAGAACUGAATT against EARS2,inactive: 0.0463
16,CCAUAACCGAUGUGCUGGATT against METTL1,inactive: 0.0494
17,GGUGCACCAUUAAUAACCATT against ELF2,inactive: -0.514
18,UGAUGGAAGUUGUCACUUATT against BLK,inactive: -0.274
19,CAGUGAAUAUGGAACCGGATT against CHD3,inactive: 0.589
20,CAACCUCUCUCAUCGGGAATT against ETV6,inactive: 0.0216
21,CAAUUAACCUGCAGUUUAATT against AP3M2,inactive: 0.327
22,GCCUGACAGUGGUAUACAATT against COPZ1,active: -1.02
23,CAUCCGCUUUUGUAAGGAUTT against ITPKB,inactive: -0.142

row,Sequence,median seed-adjusted z-score
1,GGAUGAUGUGAACUACAAATT against PTDSS1,inactive: -0.76
2,GGACAGUUAAGUUUGGGAATT against MOS,inactive: 0.105
3,GCUUUCAGCCUGAUGGAUATT against ITPA,inactive: 0.616
4,GGCCGAAUCCCUUCAGAAATT against NSUN3,inactive: 0.302
5,UGAACUGAUCUGUAUCAAATT against CCRL1,inactive: -0.347
6,CCCUGGUCCGCUACAAGAATT against PROKR1,inactive: -0.507
7,CGAGACCUACUCCUACUAUTT against DEGS2,inactive: -0.305
8,GGAAGUCUCUGACACCGAUTT against PGBD1,inactive: 0.925
9,CGCAGUCAAUGGUCUAGAATT against NT5C1B,inactive: 0.0594
10,GGGACAAAAAUACACUUAATT against ZNF277,inactive: -0.0374
11,GGGAUGACAUUUUCGUGUATT against USP4,inactive: -0.0365
12,CAGUUUCGGUGCAUAGAAATT against NADSYN1,inactive: 0.217
13,GAAGUAGAAAGAUAUACGATT against PCDHGB7,inactive: -0.0065
14,GGGUGGUGGUUGUAGAUAUTT against PCDHB12,inactive: -0.0664
15,CGGCAUCAAUGUGAAAUGUTT against GMEB2,inactive: -0.669
16,GACGCAGUAUGAUGAGAUUTT against SPPL2B,inactive: 0.0324
17,CUGGGACUGUGAUAACGGATT against ASPHD2,inactive: -0.719
18,CGGUUGCAACUGGAAUGUUTT against SLCO1B3,inactive: -0.303
19,GGCCAUUUGCAAUAGACAUTT against B3GAT1,inactive: 0.503
20,GACUUGUCUUCUUCGUAAATT against DNM1L,inactive: -0.153
21,GGACUCUUCAUGAUCUAUUTT against SLC33A1,inactive: 0.2
22,AGCACAGGCUCUUACCUUATT against ZNF177,inactive: 0.363
23,CUAUCUCCCUCAUUAGAUATT against GJA9,inactive: -0.00119

row,Sequence,median seed-adjusted z-score
1,GGACAAUCAUUACCAGAUATT against ZBTB1,inactive: 0.3
2,AAUCAAAAGGGAGAACUCATT against HS3ST2,inactive: 0.133
3,CAAUAAGGCUCAUGCACAATT against GNAQ,active: -1.23
4,GCCCUCCAAUAUGCUAGUATT against MAP2K5,inactive: 0.986
5,CAACGACUCAAAGUAUAUATT against SETD1A,inactive: 0.0595
6,AGAUCUACAUCGUGAUGAATT against CDC2L1,active: -1.14
7,GAAAUACGAGAAACGAAUUTT against OXCT2,inactive: -0.449
8,GAACUUCAGAAGUAUGAGATT against USP29,inactive: 0.00928
9,CCAUCGUCCUCAUGUCAAATT against SPIC,inactive: 0.379
10,CGAUAAACUCAGACCAGAATT against IDE,inactive: -0.081
11,GCAUUAGAGGUGACGCAAATT against FBXO18,inactive: -0.417
12,GAAGGUCCCAAACAACAUUTT against TACR3,inactive: 0.0904
13,GCUGGUACCAGAUGCUGUATT against CLN3,inactive: 0.105
14,CCCUAGAUAUGGACGAUGATT against UTP3,active: -1.08
15,GUUUCGACCUCGAUCCAGATT against ZNF358,inactive: 0.359
16,GAGUUGUCGACACCACUUATT against PROS1,inactive: 0.436
17,GAUGUUCACGUAAACAUAATT against ZRSR2,inactive: 0.0222
18,GGAAUGAAGGUUGUCCUUATT against HSD17B12,inactive: 0.0719
19,CCGUAUUCUCAAUCAAGUATT against RAPGEF2,inactive: -0.0715
20,CCAGCUCGAGAAUUUGGAATT against MXI1,inactive: 0.348
21,GCUCUUACCUUACCAUCGATT against DNMT3B,inactive: 0.0761
22,GCUCUUAGGUUUUUAUCAATT against PTGER2,inactive: 0

# Three successive records from above, for reference:
row,Sequence,median seed-adjusted z-score
12,GAAGGUCCCAAACAACAUUTT against TACR3,inactive: 0.0904
13,GCUGGUACCAGAUGCUGUATT against CLN3,inactive: 0.105
14,CCCUAGAUAUGGACGAUGATT against UTP3,active: -1.08
